About 5,400 (1.8%) of roughly 300,000 compounds were called active. The shares of active, inactive and inconclusive entries below differ from those in the screen. The call rests on the fitted dose curve; tested in HEK293 cells. Potencies beside an inconclusive call are fits to weak or partial responses and may not hold up.
Test: qHTS for inhibitors of binding or entry into cells for Marburg Virus
Conditions: Marburg virus pseudotyped entry inhibition, cell reporter; series mostly up to 37.8 µM
Potency means the concentration at half of the fitted maximal effect.

| SMILES | Potency |
| --- | --- |
| CCN(CC)c1cc(Oc2ccccc2)ncn1 | inconclusive: 20.6 µM [activator, partial curve, poor fit] |
| CC[n+]1c(/C=C2/C=C(C)CC(C)C2)sc2ccccc21 (centres undefined) | inconclusive: 14.6 µM [inhibitor, partial curve, poor fit] |
| CCCCC(CC)C(=O)NCCCN1CCN(CCCNC(=O)C(CC)CCCC)CC1 (centres undefined) | inconclusive: 14.1 µM [inhibitor, single point] |
| Cc1cccc(N2CCN(C(=O)CC(NC(=O)c3ccccc3)c3ccccc3)CC2C)c1 (centres undefined) | inconclusive: 22.4 µM [inhibitor, single point] |
| CC(C)CC(NC(=O)C1CCCCC1)C(=O)NCc1ccccn1 (centres undefined) | inconclusive: 1.46 µM [activator, partial curve, poor fit] |
| COc1ccc(-c2cc(C(=O)N3CCCC3)no2)cc1 | inconclusive: 11.2 µM [inhibitor, partial curve, poor fit] |
| CCCOc1ccc(OCCN2CCCC(C)C2)cc1 (centres undefined) | inconclusive: 8.2 µM [inhibitor, partial curve] |
| O=C(O)C(CCCCN1C(=O)c2ccccc2C1=O)N1C(=O)c2ccccc2C1=O (centres undefined) | inactive |
| CCOC(=O)c1c(C)[nH]c(C(=O)NCc2ccccn2)c1C | inconclusive: 17.8 µM [activator, partial curve, poor fit] |
| COc1ccc(OC)c(S(=O)(=O)N2CCC(C(=O)Nc3cccc(C)c3)CC2)c1 | inactive |
| Cc1cc(NC(=O)/C=C/c2ccccc2Cl)n(-c2nc3ccccc3[nH]2)n1 | inconclusive: 35.5 µM [inhibitor, single point] |
| CCCCN(CC)CCNC(=O)C1CCCN(S(=O)(=O)c2cccc3nsnc23)C1 (centres undefined) | inconclusive: 10 µM [inhibitor, partial curve, poor fit] |
| CN1Cc2cccc3c2C(Cc2ccccc2S3)C1 (centres undefined) | inconclusive: 35.5 µM [inhibitor, single point] |
| CC(CNC(=O)c1ccccc1Cl)NC(=O)c1ccccc1Cl (centres undefined) | inconclusive: 2.24 µM [inhibitor, single point] |
| Cc1cc(C)nc(NC(N)=NCCc2c[nH]c3ccccc23)n1 | inconclusive: 10 µM [inhibitor, partial curve, poor fit] |
| O=C(c1ccco1)N1CCN(c2ccc([N+](=O)[O-])cc2F)CC1 | inactive |
| Cc1cc(NC(=O)c2cc([N+](=O)[O-])ccc2Cl)no1 | inconclusive: 35.5 µM [inhibitor, single point] |
| COCCC(=O)N1CCC(Oc2ccc(C(=O)NC3Cc4ccccc4C3)cc2)CC1 | inconclusive: 39.8 µM [inhibitor, partial curve, poor fit] |
| CC(/C=C\c1cccnc1)=C/C(=O)O | inconclusive: 11.2 µM [activator, single point] |
| COc1ccc(Nc2oc(/C=C/c3cccc(OC)c3)nc2C#N)cc1 | inconclusive: 0.891 µM [activator, full curve, poor fit] |
| CCCn1c(=NC(=O)c2cc3ccccc3o2)c(C(=O)OCC)cc2c(=O)n3ccccc3nc21 | inactive |
| COc1cc(C2c3c(-c4ccccc4O)n[nH]c3C(=O)N2Cc2ccco2)ccc1OCC(C)C (centres undefined) | inconclusive: 28.2 µM [inhibitor, single point] |
| CCOc1ccccc1NC(=O)C(CC)n1c(C(=O)OC)cc2occc21 (centres undefined) | inconclusive: 35.5 µM [inhibitor, single point] |

| SMILES | Potency |
| --- | --- |
| O=C(N/N=C/c1cccnc1)c1ccc(CN2c3cccc4cccc(c34)S2(=O)=O)cc1 | inactive |
| N#Cc1c(SCC(=O)Nc2cccc(C(F)(F)F)c2)sc2c(O)cc(=O)[nH]c12 | inactive |
| CCOC(=O)N1CCN(S(=O)(=O)c2ccc(C(=O)NNc3nc4ccc(Cl)cc4s3)cc2)CC1 | active: 18.4 µM |
| Cn1c(=O)c2c(-c3ccccc3)n(-n3cnnc3)cc2n(C)c1=O | inconclusive: 35.5 µM [inhibitor, single point] |
| CC(C)(C)c1csc(NC(=O)Nc2ccccc2)n1 | inconclusive: 35.5 µM [inhibitor, partial curve, poor fit] |
| CCCC(c1nnnn1CS(=O)(=O)c1ccc(C)cc1)N1CCN(CC)CC1 (centres undefined) | inconclusive: 35.5 µM [inhibitor, single point] |
| Cc1ccc(C2=Nc3ccccc3N=C(C(Cl)Cl)C2)cc1 | inconclusive: 0.562 µM [activator, full curve, poor fit] |
| C=CCn1c(C)cc(C(=O)CN2C(=O)NC3(CCCc4ccccc43)C2=O)c1C (centres undefined) | inactive |
| CCCCNC(=O)CN(c1cc(C(F)(F)F)ccc1Cl)S(C)(=O)=O | inconclusive: 1.58 µM [inhibitor, partial curve, poor fit] |
| CN(CCCNC(=O)c1cccn2c(=O)c3ccccc3nc12)Cc1ccccc1 | inconclusive: 29.1 µM [inhibitor, single point] |
| Cc1nc2ccccc2n1CC(=O)OCC(=O)N1CCC(C)CC1 | inactive |
| CC1CCC(NC(=O)c2cc3c(s2)CCCC3)CC1 (centres undefined) | inconclusive: 1 µM [activator, full curve, poor fit] |
| CCOc1ccc(/C=N/NC(N)=S)cc1 | inactive |
| CN=C1C([N+](=O)[O-])=CC=C2C1=NC1(CCCCC1)N2O | inconclusive: 1.84 µM [inhibitor, partial curve, poor fit] |
| CCOC(=O)CN1N=C(/C=C/c2ccc(C(C)C)cc2)CCC1=O | inconclusive: 3.98 µM [activator, partial curve] |
| Cc1ccc(-n2nc(C(=O)NCc3ccco3)c3c4ccccc4n(C)c3c2=O)cc1 | inconclusive: 7.94 µM [inhibitor, partial curve] |
| CCCn1c(NCc2ccccn2)nc2ccccc21 | inconclusive: 29.1 µM [activator, single point] |
| Fc1ccc(N/N=C/c2ccncc2)c(F)c1 | inactive |
| Cc1ccc(NC(=O)/C(C#N)=C/c2ccc(C)s2)c(C)c1 | inactive |
| CNC(=S)NNC(=O)c1sc(-c2cc(C)on2)nc1C | inactive |
| Cc1nc2ccccc2nc1OCc1ccccc1 | inactive |
| O=C(NCC1CCCO1)c1ccc2ccccc2n1 (centres undefined) | inconclusive: 3.55 µM [activator, partial curve, poor fit] |
| O=C(NCc1cccs1)c1cccc(N2CCCC2=O)c1 | inactive |

Rewritten comma-delimited: part of the list above
SMILES,Potency
CCCn1c(NCc2ccccn2)nc2ccccc21,"inconclusive: 29.1 µM [activator, single point]"
Fc1ccc(N/N=C/c2ccncc2)c(F)c1,inactive
Cc1ccc(NC(=O)/C(C#N)=C/c2ccc(C)s2)c(C)c1,inactive

Next part:

| SMILES | Potency |
| --- | --- |
| CCN(CC)Cc1c(O)ccc2c(=O)c(-c3ccccc3Cl)coc12 | inconclusive: 6.31 µM [inhibitor, single point] |
| CN1CCCCc2c1nc1ccccc1c2N (tested in a mixture with another compound) | inconclusive: 29.1 µM [inhibitor, single point] |
| COc1ccc2c(c1)Cc1sc(NC(=O)c3cccc(C)c3)nc1-2 | inactive |
| CCN1CCN(c2cc(C(C)C)nc3c(-c4ccccc4)c(C)nn23)CC1 | inconclusive: 35.5 µM [inhibitor, single point] |
| COc1ccc(-c2ccnc(-c3ccc(O)cc3)n2)cc1 | inconclusive: 1.26 µM [inhibitor, partial curve, poor fit] |
| Cc1nnc(NCc2n[nH]c(=O)c3ccccc23)c2ccccc12 | inconclusive: 18.3 µM [inhibitor, single point] |
| CCc1ccccc1NC1=NCC(=O)N1Cc1ccc2c(c1)OCO2 | inactive |
| Cc1c(C(=O)N2CCCCC2)c(S(=O)(=O)N2CCN(c3ccc(Cl)cc3)CC2)c(C)n1C | inconclusive: 0.562 µM [inhibitor, full curve, poor fit] |
| COc1ccc(/C=N/Nc2ccc(C(=O)O)cc2)c(OC)c1OC | inconclusive: 2.24 µM [activator, full curve] |
| COc1ccc(CCNC(=O)CCS(=O)(=O)c2cc(Br)cc3c2N(C(C)=O)CC3)cc1OC | inactive |
| OCCN1CCOCCN(CCO)CCN(CCO)CC1 | inconclusive: 22.4 µM [activator, single point] |
| COc1ccccc1Cn1c(/C=C/c2ccccc2)nc2ccccc21 | inconclusive: 35.5 µM [inhibitor, single point] |
| O=C(COC(=O)c1ccccc1)NCCC1=CCCCC1 | inactive |
| CN(c1ccc(OCC(=O)Nc2nc(-c3ccccc3)cs2)cc1)S(=O)(=O)c1ccc(F)cc1 | inconclusive: 14.6 µM [inhibitor, partial curve, poor fit] |
| CN(C)S(=O)(=O)Nc1ccccc1F | inactive |
| CC(O)c1cc2c(cc1NC(=O)c1cnn3c1NC(c1ccco1)CC3C(F)(F)F)OCO2 (centres undefined) | inconclusive: 31.6 µM [inhibitor, single point] |
| CCOC(=O)C1(CCc2ccccc2)CCN(Cc2cccc3c2OCO3)CC1 | active: 12.6 µM |
| O=C(NCCCO)C(=O)c1c(-c2ccccc2)cc2ccccn12 | inconclusive: 6.31 µM [inhibitor, single point] |
| Nc1c(C(=O)Nc2ccc(S(=O)(=O)N3CCCC3)cc2)sc2nc3ccc(OC(F)(F)F)cc3cc12 | active: 6.31 µM |
| CCOC(=O)C1=C(COC(=O)c2cccc(Br)c2)NC(=O)NC1C (centres undefined) | inconclusive: 7.94 µM [activator, partial curve, poor fit] |
| COc1ccc(/C=C/C(=O)Nc2cc(S(=O)(=O)N3CCOCC3)ccc2OC)cc1 | inconclusive: 8.91 µM [inhibitor, partial curve, poor fit] |
| CCn1c(SCc2cccc(F)c2)nnc1-c1cccnc1 | inconclusive: 35.5 µM [activator, partial curve, poor fit] |
| CCN(CC(=O)Nc1ccccc1OC)C(=O)C1CCC1 | inconclusive: 12.6 µM [activator, partial curve] |

From PubChem BioAssay AID540276 (National Center for Advancing Translational Sciences (NCATS), 2011)
